Results deposited as PubChem BioAssay AID1259254 (NCATS, 2017).

Aim: 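Gene knock-downs that lead to re-replication, shown by excess G2 DNA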 (primary screen)
System: human HCT116 colorectal cancer cells
Reagents: single siRNA against human genes
Timing: 3 days
Measured: 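Imaged Hoechst DNA stain sorts each cell into a cycle phase by DNA amount; per plate, G2 fraction set to 0% for non-targeting and 100% for GMNN siRNA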
Reading the numbers: G2 robust z-score: higher = more G2 cells, more excess DNA replication
Rule for the call: 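An siRNA counts as active if its G2 robust z-score lies at least 5 MADs above the screen median; here such calls match roughly 38% of GMNN control or more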
The whole screen tested about 59,000 reagents; this is a random part of them. About 1,550 of them (2.6%) were called active. 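G2 share is only a proxy for re-replication; each gene was hit by three separate siRNAs, and active genes were retested.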 The numbers tell different reagents against one gene apart. Further read-outs or replicates are left out here. Not given: the amount of reagent.

G2 robust z-score, by gene knocked down and reagent
NACA2 (nascent polypeptide associated complex subunit alpha 2): #1 4.2 inactive; #2 0.8 inactive; #3 -0.907 inactive
LINC00997 (long independently transcribed non-coding RNA 997): #1 -0.258 inactive; #2 -1.08 inactive; #3 -0.649 inactive
UPF3B (UPF3B regulator of nonsense mediated mRNA decay): #1 0.273 inactive; #2 -0.174 inactive; #3 -0.632 inactive
SLC44A2: #1 -0.505 inactive; #2 0.56 inactive; #3 -0.228 inactive
DPYSL4 (dihydropyrimidinase like 4): #1 1.91 inactive; #2 2.11 inactive; #3 4.05 inactive
VPS41 (VPS41 subunit of HOPS complex): #1 -0.382 inactive; #2 0.652 inactive; #3 -0.962 inactive
AQP5 (aquaporin 5): #1 1.19 inactive; #2 -0.964 inactive; #3 3.47 inactive
REXO1L1P (REXO1 like 1, pseudogene): #1 0.306 inactive; #2 2.33 inactive; #3 -0.13 inactive
POU6F1 (POU class 6 homeobox 1): #1 -0.363 inactive; #2 -0.93 inactive; #3 -0.612 inactive
HNRNPA0 (heterogeneous nuclear ribonucleoprotein A0): #1 -0.572 inactive; #2 -0.755 inactive; #3 -1.06 inactive

2 of these entries, set out differently:
gene knocked down,siRNA no.,G2 robust z-score,Call
SLC44A2,2,0.56,inactive
SLC44A2,3,-0.228,inactive
